This assay concerns BDF1 mice, P388 leukemia ip, median survival T/C. The assay can be described thus: NCI In Vivo Anticancer Drug Screen. Data for tumor model P388 Leukemia (intraperitoneal) in B6D2F1 (BDF1) mice. Conditions: T/C endpoint: median survival time, higher T/C = longer survival. In short, it runs like this: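 Read-out is survival of treated animals expressed relative to the vehicle group, as a T/C ratio.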

[1] abbreviates: dose: 400.0 mg/kg/injection, schedule: Q01DX009 (ip), vehicle: Klucel (hydroxypropylcellulose) (HPC).
The mark [2] stands for this setting: dose: 400.0 mg/kg/injection, schedule: Q04DX003 (ip), vehicle: Klucel (hydroxypropylcellulose) (HPC).
Setting [3] is: dose: 200.0 mg/kg/injection, schedule: Q01DX009 (ip), vehicle: saline with Tween-80.
Setting [4] is: dose: 25.0 mg/kg/injection, schedule: Q01DX009 (ip), vehicle: saline with Tween-80.
The mark [5] stands for this setting: dose: 50.0 mg/kg/injection, schedule: Q01DX009 (ip), vehicle: saline with Tween-80.
[6] abbreviates: dose: 100.0 mg/kg/injection, schedule: Q01DX009 (ip), vehicle: saline with Tween-80.
[7] abbreviates: dose: 200.0 mg/kg/injection, schedule: Q04DX003 (ip), vehicle: saline with Tween-80.
[8] abbreviates: dose: 12.5 mg/kg/injection, schedule: Q01DX009 (ip), vehicle: saline with Tween-80.
The mark [9] stands for this setting: dose: 200.0 mg/kg/injection, schedule: Q01DX009 (ip), vehicle: saline.
Where [10] appears, read: dose: 100.0 mg/kg/injection, schedule: Q01DX009 (ip), vehicle: saline.

The list is a part of this screen's results and no random one: it is rich in T/C values a quarter to a half above the control, in often repeated tests (any T/C) and in doses without a T/C. Further doses and runs are listed elsewhere. T/C is the treated group as % of the vehicle group. Some entries give survivors of the animals treated and no T/C: the source files T/C as zero there, which appears to mark a toxic dose or a test without result, not a measured value. Some survivor counts are full or nearly so, which does not show that the dose was tolerated: survival well below the control is almost never listed, so the zero probably covers shortened survival too. Survivors were counted at the toxicity check, usually on the fifth day, unless a day is given; later deaths do not show. Schedule codes are those of the source, taken here to give the interval after Q, in days (D) or hours (H), and the number of doses after X. Some entries were tested several times; the values are given in rising order. For survival time, the PubChem record calls one and a half times the control and up active, and a quarter to a half above the control has no call in these data; cut-offs in other NCI protocols can differ. Marks such as (2×) say how often a value occurs here. Some T/C values are followed by the survivors on the day toxicity was checked, most often the fifth; without a count, all were alive then.

`O=[N+]([O-])c1cc([N+](=O)[O-])c(Nn2c3ccccc3c3ccccc32)c([N+](=O)[O-])c1`: the survivor count was 0 of 6 under setting [1] and 2 of 6 under setting [2].

Take `CC(=O)N(O)CCCCCNC(=O)CCC(=O)N(O)CCCCCNC(=O)CCC(=O)N(O)CCCCCN`: the survivor count under setting [3] is recorded as 5 of 6.

With `COc1cc(O)c2c(c1)C(=O)c1cc3c(c(O)c1C2=O)C(OC1OC(C)C(O)C(O)C1OC)C(OC)C(C)(O)C3=O` (stereo unspecified), the T/C (dose: 37.5 mg/kg/injection, schedule: Q01DX010 (ip), vehicle: saline) was 130 % of control; the T/C (dose: 72.0 mg/kg/injection, schedule: Q01DX009 (ip), vehicle: Klucel (hydroxypropylcellulose) (HPC)) was 132 % of control; the T/C (dose: 75.0 mg/kg/injection, schedule: Q01DX010 (ip), vehicle: saline) is 130 % of control. Also, the survivor count is, setting by setting: (dose: 150.0 mg/kg/injection, schedule: Q01DX010 (ip), vehicle: carboxymethylcellulose (CMC)) 6 of 6; (dose: 300.0 mg/kg/injection, schedule: Q01DX010 (ip), vehicle: carboxymethylcellulose (CMC)) 4 of 6; (dose: 300.0 mg/kg/injection, schedule: Q01DX010 (ip), vehicle: saline) 2 of 6 and 3 of 6.

With `O=C(OC1C2C=CC(C(O)O2)C1c1ccccc1)c1ccc(Cl)cc1` (stereo unspecified), for the setting “dose: 400.0 mg/kg/injection, schedule: Q01DX001 (ip), vehicle: saline with Tween-80”, the survivor count is 6 of 6.

For the compound `CCCCCn1c(Cl)c(/C=N\Nc2ccc([N+](=O)[O-])cc2)c2ccccc21`, the survivor count was 5 of 6 (dose: 100.0 mg/kg/injection, schedule: Q01DX001 (ip), vehicle: Klucel (hydroxypropylcellulose) (HPC)); 4 of 6 (dose: 200.0 mg/kg/injection, schedule: Q01DX001 (ip), vehicle: Klucel (hydroxypropylcellulose) (HPC)); 4 of 6 (dose: 400.0 mg/kg/injection, schedule: Q01DX001 (ip), vehicle: Klucel (hydroxypropylcellulose) (HPC)).

For `NC(=O)c1cn(C2OC(CO)C(O)C2O)c2ncn3ccnc3c12` (stereo unspecified), the T/C (dose: 12.5 mg/kg/injection, schedule: Q04DX003 (ip), vehicle: saline) is 126 % of control and the T/C (dose: 50.0 mg/kg/injection, schedule: Q04DX003 (ip), vehicle: saline) was 128 % of control.

On to `CCCCCCCCCCC(C(=O)O)C1(C(=O)O)CCC(=O)O1` (stereo unspecified), for which the survivor count under setting [1] was 3 of 6.

For the compound `CC1(C)C2CC=C(C[P+](c3ccccc3)(c3ccccc3)c3ccccc3)C1C2` (stereo unspecified), the survivor count runs as follows: (dose: 5.0 mg/kg/injection, schedule: Q01DX009 (ip), vehicle: saline sonified) 5 of 6; (dose: 7.5 mg/kg/injection, schedule: Q01DX009 (ip), vehicle: saline sonified) 2 of 6.

For the compound `CCCCNC1=C(N2CC2)C(=O)C(NCCCC)=C(N2CC2)C1=O`, the T/C was 142 % of control (dose: 2.5 mg/kg/injection, schedule: Q01DX009 (ip), vehicle: saline) and 149 % of control (dose: 10.0 mg/kg/injection, schedule: Q01DX009 (ip), vehicle: saline).

Regarding `O=C(C=C(C(F)(F)F)C(F)(F)F)c1ccc(F)cc1`, the T/C (dose: 25.0 mg/kg/injection, schedule: Q01DX009 (ip), vehicle: other) is 127 % of control and the T/C (dose: 37.5 mg/kg/injection, schedule: Q01DX009 (ip), vehicle: other) is 127 % of control [5 of 6 alive]. Moreover, the survivor count (dose: 50.0 mg/kg/injection, schedule: Q01DX009 (ip), vehicle: Klucel (hydroxypropylcellulose) (HPC)) is 2 of 6.

For `CC(=O)Nc1ccc(/C=C\c2ccnc3ccccc23)cc1`, the survivor count by setting is: (dose: 100.0 mg/kg/injection, schedule: Q04DX002 (ip), vehicle: saline with Tween-80) 6 of 6; (dose: 200.0 mg/kg/injection, schedule: Q04DX002 (ip), vehicle: saline with Tween-80) 1 of 6; (dose: 400.0 mg/kg/injection, schedule: Q04DX002 (ip), vehicle: saline with Tween-80) 0 of 6.

As for `Cc1ccc(S)cc1`, the survivor count (dose: 100.0 mg/kg/injection, schedule: Q04DX003 (ip), vehicle: saline with Tween-80) is 3 of 6.

Take `CC(C#N)(C#N)N=Nc1ccc(Cl)cc1Cl`: the T/C was 125 % of control under setting [4]; 127 and 127 % of control [5 of 6 alive] under setting [5]; 130 % of control under setting [6]; 125 % of control (2×) under setting [3].

On to `Nc1nc2c(c(=O)[nH]1)NC(CCNc1ccc(C(=O)O)cc1)CN2` (stereo unspecified), for which the survivor count was 2 of 6 under setting [7] and 0 of 6 (dose: 400.0 mg/kg/injection, schedule: Q04DX003 (ip), vehicle: saline with Tween-80).

As for `CC(C)(O)C1C2OC(=O)C1C1(O)CC3OC34C(=O)OC2C14C` (stereo unspecified), the T/C (dose: 50.0 mg/kg/injection, schedule: Q04DX003 (ip), vehicle: saline with Tween-80) is 127 % of control.

Turning to `O=[N+]([O-])c1ccc2c(c1)Cc1cc(Br)ccc1-2`, under “dose: 200.0 mg/kg/injection, schedule: Q04DX003 (ip), vehicle: Klucel (hydroxypropylcellulose) (HPC)”, the survivor count is 3 of 6.

With `CC(C)COC(=O)NCCF`, the survivor count reads like this: under setting [5], 0 of 6; under setting [6], 0 of 6; under setting [3], 0 of 6.

On to `CN1CCN(C(=O)Cc2c[nH]c3ccccc23)CC1`, for which the survivor count is, setting by setting: under setting [8], 6 of 6; under setting [4], 5 of 6; under setting [7], 3 of 6.

Turning to `O=C(NNC(=O)OCc1ccccc1)OCc1ccccc1`, the survivor count under setting [2] is listed as 4 of 6.

`Cc1ccc(S(=O)(=O)NCN2C(=O)c3ccccc3C2=O)cc1`: the survivor count under setting [8] is recorded as 6 of 6; the survivor count under setting [5] is reported as 6 of 6; the survivor count under setting [9] is 6 of 6; the survivor count (dose: 400.0 mg/kg/injection, schedule: Q01DX009 (ip), vehicle: saline) was 6 of 6.

On to `c1ccc2c(c1)Cc1c(NC3=NCCO3)cccc1-2`, for which, under setting [7], the survivor count is recorded as 3 of 6.

`CC(=O)CC(=O)Nc1nc2ccccc2s1`: under setting [10], the survivor count is recorded as 5 of 6.

On to `O=S(=O)([O-])[O-].OCCNCCNCC[OH2+].OCCNCCNCC[OH2+].[Ni+2]`, for which the survivor count is listed as 5 of 6 (dose: 50.0 mg/kg/injection, schedule: Q01DX009 (ip), vehicle: saline); 3 of 6 under setting [10]; 0 of 6 under setting [9].

As to `O=C(C[n+]1ccccc1)N/N=C/c1ccc([N+](=O)[O-])s1`, the T/C (dose: 25.0 mg/kg/injection, schedule: Q01DX009 (ip), vehicle: water) was 125 % of control. Moreover, the survivor count is listed as 2 of 6 (dose: 50.0 mg/kg/injection, schedule: Q01DX009 (ip), vehicle: water) and 4 of 6 (dose: 100.0 mg/kg/injection, schedule: Q04DX003 (ip), vehicle: water).

`C=C(C)C(=O)O[C@H]1[C@H]2[C@H](OC(=O)[C@H]2C)[C@H](O)[C@@H](C)[C@@H]2C=CC(=O)[C@]21C`: the T/C (dose: 12.5 mg/kg/injection, schedule: Q01DX009 (ip), vehicle: saline) was 131 % of control.

Consider `CC[CH2][Pb]([CH2]CC)([CH2]CC)[N]1C(=O)c2ccccc2C1=O`, for which the T/C (dose: 12.5 mg/kg/injection, schedule: Q01DX009 (ip), vehicle: Klucel (hydroxypropylcellulose) (HPC)) was 126 % of control. Further, the survivor count (dose: 25.0 mg/kg/injection, schedule: Q01DX009 (ip), vehicle: Klucel (hydroxypropylcellulose) (HPC)) is listed as 6 of 6.

As to `CC1(C)O[C@]2(C)CC[C@@H]1[C@H](O)[C@@H]2N1CCCC1`, the survivor count (dose: 200.0 mg/kg/injection, schedule: Q01DX005 (ip), vehicle: saline with Tween-80) is 0 of 5.

As for `N=C1N=C(C(F)(F)F)N=C1c1[nH]c(C(F)(F)F)nc1N`, where the note is “dose: 12.5 mg/kg/injection, schedule: Q01DX009 (ip), vehicle: water”, the survivor count is listed as 4 of 6.

For the compound `COc1cccc2c1C(=O)c1c(O)c3c(c(O)c1C2=O)C[C@@](O)(C(=O)CO)C[C@@H]3OC1CC(NC(=O)C(F)(F)F)C(O)C(C)O1` (stereo partly specified), the T/C runs as follows: (dose: 25.0 mg/kg/injection, schedule: Q04DX009 (ip), vehicle: other) 130 % of control; (dose: 50.0 mg/kg/injection, schedule: Q04DX009 (ip), vehicle: other) 148 % of control.
